Test results as given in paper PMC10693566.
These are yes or no findings as the source states them, for the method shown. Some results given as binding are weak or reduced against the parent protein; the word gives no strength.

Amino acid sequences for entries named in this document (tags omitted). Residues count along the entry.
UniProt Q96CB9, residues 26-384: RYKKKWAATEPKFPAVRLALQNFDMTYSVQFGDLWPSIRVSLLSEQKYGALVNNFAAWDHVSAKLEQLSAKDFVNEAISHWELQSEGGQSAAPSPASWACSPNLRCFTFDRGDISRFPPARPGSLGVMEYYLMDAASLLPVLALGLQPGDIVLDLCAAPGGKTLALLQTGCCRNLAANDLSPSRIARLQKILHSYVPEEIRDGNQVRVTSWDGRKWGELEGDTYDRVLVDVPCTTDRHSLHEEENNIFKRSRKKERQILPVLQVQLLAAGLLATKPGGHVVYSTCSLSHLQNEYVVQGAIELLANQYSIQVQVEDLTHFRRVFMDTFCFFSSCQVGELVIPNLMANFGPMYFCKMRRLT

Target: T1, MTERF4 (human (endogenous in HEK293-6E)) (UniProt Q7Z6M4)
T1 sequence: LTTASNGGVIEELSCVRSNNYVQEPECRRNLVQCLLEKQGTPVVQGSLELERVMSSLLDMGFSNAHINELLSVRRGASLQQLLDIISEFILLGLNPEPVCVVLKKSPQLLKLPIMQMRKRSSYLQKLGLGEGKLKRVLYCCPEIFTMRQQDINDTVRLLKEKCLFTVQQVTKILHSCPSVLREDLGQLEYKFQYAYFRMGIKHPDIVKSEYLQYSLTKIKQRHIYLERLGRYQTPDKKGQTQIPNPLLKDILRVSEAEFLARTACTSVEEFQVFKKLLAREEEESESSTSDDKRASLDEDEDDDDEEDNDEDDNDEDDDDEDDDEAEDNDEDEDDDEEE
Assay: cryo-EM structure; native mtLSU assembly intermediate 1 isolated from HEK293-6E mitochondria in the presence of GMPPNP (20 mM HEPES-KOH pH 7.6, 100 mM KCl, 40 mM MgCl2, 1 mM DTT); single particle reconstruction at 3.03 Å

binding: binds
Substance: NSUN4 (from UniProt Q96CB9 26-384)
